According to PubChem BioAssay AID463205 (Broad Institute, 2010):
The whole screen tested about 2,400 compounds, of which about 20 (0.8%) were called active.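 The calls were made as follows: active = AC50 no more than ten times the highest tested concentration, or full inhibition at every dose giving a flat fit (cut at about 30 µM in these data); inconclusive = flat fit with activity between 30% and 70%, or poor-quality invalid fit; inactive = AC50 more than ten times the top tested dose.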 Some of the results follow.

Test: luciferase-based ADP detection interference – biochemical, luminescence, cell-free, homogeneous, artefact control for GSK-3a inhibitor project, dose response (AID 463205);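 also: kinase-free counter-screen against the ADP-Glo detection reagents only; potency is for inhibitors that reduce the luminescence signal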
Details: Cell-free ADP-Glo detection reagents, 5 uM ADP

Row | SMILES | AC50
1 | Cc1ccc(C(=O)Nc2cccc(C(=O)NC3CCCCC3)c2)cc1 | inactive: > 30 µM
2 | CCOC(=O)c1nnn(-c2nonc2N)c1COc1ccc(F)cc1 | inactive: > 30 µM
3 | COc1ccc(-c2cc(=O)oc3cc(O)ccc23)cc1 | inactive: > 30 µM
4 | CC(C)(C)NC(=O)/C(=C\C=C\c1ccccc1)NC(=O)c1ccc([N+](=O)[O-])cc1 | inactive: > 30 µM
5 | Cc1nc2cc(-c3ccccc3)ccc2o1 | inactive: > 30 µM
6 | O=C(NCCCn1ccnc1)C(=O)NC1CCCCC1 | inactive: > 30 µM
7 | CCOC(=O)c1cnc2c(C)cc(Cl)cc2c1N1CCN(C)CC1 | inactive: > 30 µM
8 | CN(Cc1ccccc1)c1ncnc(N)c1[N+](=O)[O-] | inactive: > 30 µM
9 | Cc1ccc(-c2nnc3n2N=C(c2ccc(Br)cc2)CS3)cc1 | inactive: > 30 µM
10 | Cc1ccc(N2C(S)=C(C#N)C(=O)NC2c2ccco2)cc1 (configuration not stated) | inactive: > 30 µM
11 | CCOC(=O)c1ccc(NC(=S)NCCc2ccccc2)cc1 | inactive: > 30 µM
12 | CCOC(=O)c1cc(-c2ccc(C)cc2)n(CCC(=O)NC(C)CC)c1C (configuration not stated) | inactive: > 30 µM
13 | Cc1cc2nc(-c3ccc(=O)[nH]c3)n(Cc3ccccc3)c2cc1C | inactive: > 30 µM
14 | CCN1C(=O)/C(=C2\SC(=S)N(c3c(C)n(C)n(-c4ccccc4)c3=O)C2=O)c2ccccc21 | inactive: > 30 µM
15 | O=C(COC(=O)c1cccc(S(=O)(=O)N2CCOCC2)c1)Nc1ccc(Cl)cn1 | inactive: > 30 µM
16 | COc1cccc(CN2CCN(Cc3cc(OC)c(OC)cc3[N+](=O)[O-])CC2)c1 | inactive: > 30 µM
17 | Cc1occc1C(=O)N/N=C/c1ccc(N(C)C)cc1 | active: 28.1 µM
18 | COc1cc(SC)ccc1C(=O)Nc1nc(C)cc(C)n1 | inactive: > 30 µM
19 | CN(C)C=Nc1ncc2c3ccccc3n(CCN(C)C)c2c1C#N | inactive: > 30 µM
20 | Cc1c(CCOC(=O)c2ccc(Cl)cc2Cl)sc[n+]1CC(=O)c1ccccc1 | inactive: > 30 µM
21 | Cc1ccc(N=c2oc3cc(O)ccc3cc2C(N)=O)cc1 | inactive: > 30 µM
22 | COC(=O)CNc1nc(Cl)nc(NC2CCCCC2)n1 | inactive: > 30 µM
23 | CC(C)(C)NC(=O)CSc1ncccc1-c1nc2ccccc2[nH]1 | inactive: > 30 µM

Row | SMILES | AC50
24 | COc1ccc(-c2cn3cccnc3n2)cc1NC(=O)CC(C)C | inactive: > 30 µM
25 | O=C(Nc1cccc(-c2cnc3ccccc3n2)c1)c1ccncc1 | inactive: > 30 µM
26 | COc1ccc(C(=O)NCC(=O)N/N=C/C(C)=C/c2ccccc2)cc1OC | inactive: > 30 µM
27 | CCOC(=O)c1nnn(-c2nonc2N)c1COc1c(C=O)cccc1OC | inactive: > 30 µM
28 | O=C(c1ccco1)N(Cc1cccc([N+](=O)[O-])c1)c1ccc(Br)cc1 | inactive: > 30 µM
29 | COc1ccc(OC)c(C2CC(=O)N3CN(c4cccc(Cl)c4)CSC3=C2C#N)c1 (configuration not stated) | inactive: > 30 µM
30 | COC(=O)c1c(NC(=O)COC(=O)c2ccccn2)sc(C)c1C | inactive: > 30 µM
31 | CNc1c(C(=O)O)ccc2c1C(=O)c1ccccc1C2=O | inactive: > 30 µM
32 | COc1ccc2nc(NC(=O)C3CCN(S(=O)(=O)c4cnc[nH]4)CC3)sc2c1 | inactive: > 30 µM
33 | COc1ccc(/C=N/NC(=O)c2nnn(-c3nonc3N)c2CN(C)c2ccccc2)cc1 | inactive: > 30 µM
34 | COc1cccc(Nc2nc(N)c([N+](=O)[O-])c(NCc3ccco3)n2)c1 | inactive: > 30 µM
35 | Cc1ccc(/C=C2\Oc3c(ccc(O)c3CN3CCN(CCO)CC3)C2=O)cc1 | inactive: > 30 µM
36 | COc1cc(-c2[nH]nc3c2C(c2ccoc2)C(C#N)=C(N)O3)cc(OC)c1OC (configuration not stated) | inactive: > 30 µM
37 | COc1cc2ncc(S(=O)(=O)c3ccccc3)c(N3CCCC(C)C3)c2cc1OC (configuration not stated) | inactive: > 30 µM
38 | CCN(CC)c1nc(N)c([N+](=O)[O-])c(NCCO)n1 | inactive: > 30 µM
39 | CCCCSc1nc(N)c(C#N)c(-c2cccs2)c1C#N | inactive: > 30 µM
40 | C/C(=N/NC(=O)c1ccc(C)s1)c1ccncc1 | inactive: > 30 µM
41 | O=c1[nH][nH]c(-c2ccccc2)c1C=Nc1ccc(OC(F)(F)F)cc1 | inactive: > 30 µM
42 | CCCCn1c(O)c(C=NCCCN(C)C)c(=O)[nH]c1=O | inactive: > 30 µM
43 | CCOC(=O)c1cc(C)sc1NC(=O)C1CCC1 | inactive: > 30 µM
44 | COc1ccc(C(=O)c2sc(Nc3ccccc3)c(C(=O)Nc3ccc(OC)c(OC)c3)c2N)cc1 | inactive: > 30 µM
45 | COc1ccccc1NC(=O)CSc1nnc(-c2ccncc2)o1 | inactive: > 30 µM
46 | CN(C)CCCNS(=O)(=O)c1ccc(NC2CCCCCC2)c([N+](=O)[O-])c1 | inactive: > 30 µM

Row | SMILES | AC50
47 | CN(C)C(=O)c1ccc(NC(=O)c2cc(-n3cnnc3)ccc2Cl)cc1 | inactive: > 30 µM
48 | N#CC1=C(SCc2ccccc2)NC(=O)CC1c1ccco1 (configuration not stated) | inactive: > 30 µM
49 | O=C(Nc1ccc(Cl)c([N+](=O)[O-])c1)c1ccc(NCCCN2CCOCC2)c([N+](=O)[O-])c1 | inactive: > 30 µM
50 | O=C(CNC(=S)N(Cc1ccccc1)Cc1cccnc1)NC1CCCCC1 | inactive: > 30 µM
51 | S=C(Nc1cccc(Cl)c1)Nc1cccc2cnccc12 | inactive: > 30 µM
52 | CC(C)c1nnc(NC(=O)CCN2C(=O)c3ccccc3C2=O)s1 | inactive: > 30 µM
53 | COc1ccc(OC)c(C(=O)c2c(C)oc3cc(Br)c(O)c(CN(C)C)c23)c1 | inactive: > 30 µM
54 | Cc1oc2ccc(O)cc2c1C(=O)c1ccc(F)cc1 | inactive: > 30 µM
55 | Cc1ccc(/C=N/NC(=O)c2nnn(-c3nonc3N)c2CN(C)C)o1 | inactive: > 30 µM
56 | CCOC(=O)c1nnn(-c2nonc2N)c1CN(CC)c1ccccc1 | inactive: > 30 µM
57 | NC(=O)c1c(-c2cccs2)csc1N | inactive: > 30 µM
58 | Cc1ccc(O)c(C(=O)c2coc(=N)c(C(=O)NC(C)C)c2)c1 | inactive: > 30 µM
59 | COc1cc(/C=C/c2nc(N)nc(-c3ccccc3O)n2)cc(OC)c1OC | inactive: > 30 µM
60 | Cc1ccc(C2CC(=O)N3CN(c4ccc(Br)cc4)CSC3=C2C#N)o1 (configuration not stated) | inactive: > 30 µM
61 | COc1cc(/C=N/n2nnnc2N)ccc1OCC#N | inactive: > 30 µM
62 | Clc1ccc(Nc2nc(NCCN3CCOCC3)nc(N3CCOCC3)n2)cc1 | inactive: > 30 µM
63 | CCCCOC(=O)n1ccc(C(=O)Nc2ccccc2OC)n1 | inactive: > 30 µM
64 | COc1ccc(NC(=O)c2nnn(Cc3cccc(F)c3)c2N)c(OC)c1 | inactive: > 30 µM
65 | O=C(Nc1ccccc1C(=O)NC1CCCCC1)c1ccco1 | inactive: > 30 µM
66 | c1ccc(N2CCN(c3nc4ccccc4n4cnnc34)CC2)cc1 | inactive: > 30 µM
67 | Cc1ccc(-c2nnc3n2N=C(c2ccccc2Br)CS3)cc1 | inactive: > 30 µM
68 | COc1ccc(-n2c(NC(=O)c3ccco3)c(C#N)c3nc4ccccc4nc32)cc1 | inactive: > 30 µM
69 | CC(C)=CC(=O)NCc1c(Cl)cccc1-n1cccc1 | inactive: > 30 µM

Row | SMILES | AC50
70 | Nc1nonc1-n1nnc(C(=O)N/N=C/c2cccnc2)c1-c1cccs1 | inactive: > 30 µM
71 | COc1ccc(NC(=O)Nc2ccc(Br)c(C)c2)cc1 | inactive: > 30 µM
72 | O=C(Nc1ccccc1-c1nnc(SCc2ccccc2)o1)c1ccccc1 | inactive: > 30 µM
73 | Cc1ccnc(NC(=O)CCC(=O)N(CC(=O)NCc2ccc(F)cc2)Cc2ccccc2)c1 | inactive: > 30 µM
74 | O=C(COC(=O)C1CCC1)c1c[nH]c2ccccc12 | inactive: > 30 µM
75 | O=C(COC(=O)c1ccccc1)Nc1ncc([N+](=O)[O-])s1 | inactive: > 30 µM
76 | CCN1CCN(Cc2c(O)ccc3c2O/C(=C\c2ccccc2)C3=O)CC1 | inactive: > 30 µM
77 | Nc1nc(NCCO)nc(N2CCCCCC2)c1[N+](=O)[O-] | inactive: > 30 µM
78 | Fc1cccc(/C=N/Nc2ccc3ccccc3n2)c1 | inactive: > 30 µM
79 | CC(=O)Nc1ccc(Oc2ccc3c(c2)C(=O)NC3=O)cc1 | inactive: > 30 µM
80 | O=C(O)c1ccc(Cl)c(NC(=O)C2CCCN2S(=O)(=O)c2cccc3nsnc23)c1 (configuration not stated) | inactive: > 30 µM
81 | OCC1OC(n2cnc3c(NCCc4ccccc4)ncnc32)C(O)C1O (configuration not stated) | inactive: > 30 µM
82 | Cn1nnnc1SCC(=O)Nc1nn(-c2ccccc2)nc1C(N)=O | inactive: > 30 µM
83 | CCn1c(SCC(=O)Nc2ccc(C)cc2)nnc1-c1ccc(O)cc1 | inactive: > 30 µM
84 | COc1ccc(CCNC(=O)CSc2nc3[nH]ncc3c(=O)n2-c2ccccc2OC)cc1OC | inactive: > 30 µM
85 | COc1ccc(N=c2oc3c(OC)cccc3cc2C(=O)NCc2ccco2)c(OC)c1 | inactive: > 30 µM
86 | Cn1cc(C(=O)c2cccc(Cl)c2)cc1/C=N\O | inactive: > 30 µM
87 | Clc1ccc(C2=Nn3c(nnc3-c3cccs3)SC2)cc1 | inactive: > 30 µM
88 | O=C(CSc1nnc(SCc2ccc(Cl)cc2)s1)N/N=C/c1ccccc1C(=O)O | inactive: > 30 µM
89 | c1nc(N2CCCCCC2)c2[nH]cnc2n1 | inactive: > 30 µM
90 | Cc1cc(C)nc(NS(=O)(=O)c2cccs2)c1 | inactive: > 30 µM
91 | CC1(C)CC(=O)C(C(C2=C(O)CC(C)(C)CC2=O)c2ccco2)C(=O)C1 (configuration not stated) | inactive: > 30 µM
92 | COc1ccc(CCNc2nc(C)cc(C)n2)cc1OC | inactive: > 30 µM

An excerpt from above in order of SMILES length, smallest number first.
Row | SMILES | AC50
86 | Cn1cc(C(=O)c2cccc(Cl)c2)cc1/C=N\O | inactive: > 30 µM
79 | CC(=O)Nc1ccc(Oc2ccc3c(c2)C(=O)NC3=O)cc1 | inactive: > 30 µM
75 | O=C(COC(=O)c1ccccc1)Nc1ncc([N+](=O)[O-])s1 | inactive: > 30 µM
84 | COc1ccc(CCNC(=O)CSc2nc3[nH]ncc3c(=O)n2-c2ccccc2OC)cc1OC | inactive: > 30 µM
